Data as given in PubChem BioAssay AID1224830 (NIAID, 2016)
Aim: 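Host factors that control LPS-induced TNF expression in human macrophages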 (primary screen). Cell system: human THP-1 monocytic leukaemia cells, TNF dual-luciferase reporter clone, PMA-differentiated to macrophage-like cells. Knock-down reagent: siRNA pool against human genes, 50 nM. Duration: LPS for 4 h, given about 3 days after siRNA transfection. Conditions: bacterial LPS (TLR4 ligand), 10 ng/ml. Measurement: 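TNF firefly reporter luminescence divided by renilla, normalised to the plate median, then turned into a robust z-score for each replicate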. Scale: TNF reporter robust z-score: higher = stronger TNF reporter response to LPS. Rule for the call: 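a well is active when its z-score exceeds 2.8 or falls below -1.5; control wells carry no call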.
The whole screen tested about 18,000 reagents; this is a part drawn at random. In the full data, about 2,900 (16%) got an active call. 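Calls are made per well; low scores hint the gene aids the LPS response, high scores that it dampens it.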 A number with no mark means an inactive call. Repeated entries: four replicate wells of each siRNA pool.

| Target gene | TNF reporter robust z-score |
| --- | --- |
| GPCPD1 | -0.19 |
| GPCPD1 | 0.08 |
| GPCPD1 | 0.07 |
| GPCPD1 | 1.1 |
| NGRN | 1.48 |
| NGRN | 1.45 |
| NGRN | 1.13 |
| NGRN | 3.14 (active) |
| FBXL19 | 2.51 |
| FBXL19 | -0.37 |
| FBXL19 | 0 |
| FBXL19 | 0.25 |
| ADCY5 | 2.73 |
| ADCY5 | -0.1 |
| ADCY5 | 0.41 |
| ADCY5 | 0.68 |
| ZRANB2 | -1.61 (active) |
| ZRANB2 | -0.91 |
| ZRANB2 | -0.95 |
| ZRANB2 | -0.55 |
| CD70 | 2.08 |
| CD70 | 3.26 (active) |
| CD70 | 1.39 |
| CD70 | 2.31 |
| GMNN | -1.35 |
| GMNN | -0.86 |
| GMNN | -1.24 |
| GMNN | -0.21 |
| SMIM7 | 1.96 |
| SMIM7 | -1.19 |
| SMIM7 | -1.01 |
| SMIM7 | -0.65 |
| TP53I13 | -1.38 |
| TP53I13 | -0.86 |
| TP53I13 | -0.65 |
| TP53I13 | 0.23 |
| TMED6 | -1.02 |
| TMED6 | -0.63 |
| TMED6 | -1.03 |
| TMED6 | -0.58 |
| RARA | -0.24 |
| RARA | -0.49 |
| RARA | -0.3 |
| RARA | 0.29 |
| SCG2 | -0.08 |
| SCG2 | -1.54 (active) |
| SCG2 | -0.1 |
| SCG2 | 0.1 |
| SIRT5 | 0.07 |
| SIRT5 | -0.04 |
| SIRT5 | -0.28 |
| SIRT5 | 0.24 |
| OR2T3 | -0.37 |
| OR2T3 | -0.74 |
| OR2T3 | -0.48 |
| OR2T3 | -0.11 |
| STX18 | -0.52 |
| STX18 | -0.34 |
| STX18 | -1.48 |
| STX18 | -1.3 |
| NAT1 | 0.52 |
| NAT1 | 1.13 |
| NAT1 | 0.87 |
| NAT1 | 0.64 |
| C4B | -0.43 |
| C4B | -0.63 |
| C4B | -0.45 |
| C4B | 0.25 |
| ABCC11 | 0.89 |
| ABCC11 | -0.5 |
| ABCC11 | 0.79 |
| ABCC11 | 2.06 |
| KRTAP6-2 | -0.79 |
| KRTAP6-2 | -0.37 |
| KRTAP6-2 | -0.86 |
| KRTAP6-2 | -0.51 |
| OTUB1 | -1.04 |
| OTUB1 | -0.53 |
| OTUB1 | -0.95 |
| OTUB1 | -1.02 |
| PDC | 2.8 (active) |
| PDC | 0.91 |
| PDC | -0.5 |
| PDC | -0.23 |
| CDR2L | 0.79 |
| CDR2L | 1.33 |
| CDR2L | 0.23 |
| CDR2L | 2.06 |
| PDCD1 | 1.67 |
| PDCD1 | 1.91 |
| PDCD1 | 0.77 |
| PDCD1 | 1.28 |
| LY86 | -0.69 |
| LY86 | -0.51 |
| LY86 | 0.17 |
| LY86 | -0.8 |
| CTSW | 3.65 (active) |
| CTSW | 1.47 |
| CTSW | 0.64 |
| CTSW | 0.41 |
| KCNQ1 | -0.6 |
| KCNQ1 | -0.84 |
| KCNQ1 | -0.77 |
| KCNQ1 | 0.46 |
| ALYREF | 3.45 (active) |
| ALYREF | 0.73 |
| ALYREF | 1.01 |
| ALYREF | 2.12 |
| GPR12 | -0.17 |
| GPR12 | -0.35 |
| GPR12 | -0.45 |
| GPR12 | 0.15 |
| TBP | 2.44 |
| TBP | 2.57 |
| TBP | 1.26 |
| CBR3 | 2.5 |
| CBR3 | 2.53 |
| CBR3 | 2.47 |
| CBR3 | 1.83 |
| NOL6 | -0.35 |
| NOL6 | -0.26 |
| NOL6 | -0.61 |
| NOL6 | -0.56 |
| PPP1R3C | -0.93 |
| PPP1R3C | -0.6 |
| PPP1R3C | -0.81 |
| PPP1R3C | -0.56 |
| DUSP8 | 1.08 |
| DUSP8 | -0.19 |
| DUSP8 | 0.03 |
| DUSP8 | 1.81 |
| PITX1 | -1.94 (active) |
| PITX1 | -1.49 |
| PITX1 | -2.09 (active) |
| PITX1 | -1.89 (active) |
| KIF23 | -0.41 |
| KIF23 | 1.34 |
| KIF23 | 0.24 |
| KIF23 | 0.71 |
| GCGR | 0.17 |
| GCGR | 4.24 (active) |
| GCGR | 0.54 |
| GCGR | 0.28 |

Already shown: 14 of the entries above.
| Target gene | TNF reporter robust z-score |
| --- | --- |
| PDCD1 | 1.28 |
| LY86 | -0.69 |
| LY86 | -0.51 |
| LY86 | 0.17 |
| LY86 | -0.8 |
| CTSW | 3.65 (active) |
| CTSW | 1.47 |
| CTSW | 0.64 |
| CTSW | 0.41 |
| KCNQ1 | -0.6 |
| KCNQ1 | -0.84 |
| KCNQ1 | -0.77 |
| KCNQ1 | 0.46 |
| ALYREF | 3.45 (active) |
